Values quoted from earlier work in patent US5334589A, “Quinolone carboxylic acid--metal ion--acid complexes” (Abbott Laboratories, priority 1992, dated 1994).

Conditions: method of Preiss et al., European Patent Application No. 287 926; cited from earlier work

O=C(O)c1cn(C2CC2)c2cc(N3CCNCC3)c(F)cc2c1=O [ciprofloxacin]
stability of pharmacological solutions: stable pharmacological solutions
